Assay results reported in publication PMC11399625.
Where two headings read alike, the source gives them in different places. No constants are given. Whether binding was seen depends on the method and setting. Binding seen in cells or lysates may run through a third protein. Some entries that bind do so weakly or less than the wild type. For some assays here: Where a sequence is shown, tags or fusion partners need not be part of it.

Sequences of proteins named here, by UniProt entry; tags and fusion partners are left off.
UniProt P03071: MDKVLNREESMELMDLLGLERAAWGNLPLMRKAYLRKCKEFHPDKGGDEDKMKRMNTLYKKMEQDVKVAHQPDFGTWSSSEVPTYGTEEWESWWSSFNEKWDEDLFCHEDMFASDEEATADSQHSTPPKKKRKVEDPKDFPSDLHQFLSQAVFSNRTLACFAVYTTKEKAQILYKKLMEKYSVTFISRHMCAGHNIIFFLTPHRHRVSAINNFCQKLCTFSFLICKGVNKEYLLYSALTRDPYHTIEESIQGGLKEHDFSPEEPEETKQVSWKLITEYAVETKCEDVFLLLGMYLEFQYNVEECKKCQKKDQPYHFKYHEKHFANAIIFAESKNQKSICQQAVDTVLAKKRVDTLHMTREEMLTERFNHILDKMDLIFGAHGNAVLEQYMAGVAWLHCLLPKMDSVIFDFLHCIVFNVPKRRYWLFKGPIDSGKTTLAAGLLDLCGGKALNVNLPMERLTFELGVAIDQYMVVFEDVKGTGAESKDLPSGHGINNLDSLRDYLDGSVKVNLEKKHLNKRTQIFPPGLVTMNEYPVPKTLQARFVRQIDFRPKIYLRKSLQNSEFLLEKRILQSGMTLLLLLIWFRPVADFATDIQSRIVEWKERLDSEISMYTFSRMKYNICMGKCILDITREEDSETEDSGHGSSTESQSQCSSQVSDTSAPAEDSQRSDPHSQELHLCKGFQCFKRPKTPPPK

Assays:
[1] = target: BKPyV TAg (BK polyomavirus large T antigen) (BK polyomavirus) (UniProt P03071); assay: co-IP; HRPTECs co-transfected with TAg plasmid and FLAG-tagged MxA (WT or mutant) for 12 h; lysis in 50 mM Tris pH 8.0, 150 mM NaCl, 1 mM EDTA, 0.5 % Nonidet P-40; immunoprecipitation with anti-SV40 TAg antibody on protein G agarose; immunoblot with anti-FLAG
[2] = target: BKPyV TAg (BK polyomavirus large T antigen) (BK polyomavirus) (UniProt P03071); assay: as above; remark: listed apart in the source

FLAG-tagged MxA K83A mutant (from UniProt P20591 1-662)
binding [1]: binds

B1: FLAG-tagged wild-type MxA (human myxovirus resistance protein A) (protein, UniProt P20591 1-662)
chain: MVVSEVDIAKADPAAASHPLLLNGDATVAQKNPGSVAENNLCSQYEEKVRPCIDLIDSLRALGVEQDLALPAIAVIGDQSSGKSSVLEALSGVALPRGSGIVTRCPLVLKLKKLVNEDKWRGKVSYQDYEIEISDASEVEKEINKAQNAIAGEGMGISHELITLEISSRDVPDLTLIDLPGITRVAVGNQPADIGYKIKTLIKKYIQRQETISLVVVPSNVDIATTEALSMAQEVDPEGDRTIGILTKPDLVDKGTEDKVVDVVRNLVFHLKKGYMIVKCRGQQEIQDQLSLSEALQREKIFFENHPYFRDLLEEGKATVPCLAEKLTSELITHICKSLPLLENQIKETHQRITEELQKYGVDIPEDENEKMFFLIDKVNAFNQDITALMQGEETVGEEDIRLFTRLRHEFHKWSTIIENNFQEGHKILSRKIQKFENQYRGRELPGFVNYRTFETIVKQQIKALEEPAVDMLHTVTDMVRLAFTDVSIKNFEEFFNLHRTAKSKIEDIRAEQEREGEKLIRLHFQMEQIVYCQDQVYRGALQKVREKELEEEKKKKSWDFGAFQSSSATDSSMEEIFQHLMAYHQEASKRISSHIPLIIQFFMLQTYGQQLQKAMLQLLQDKDTYSWLLKERSDTSDKRKFLKERLARLTQARRRLAQFPG
binding [2]: binds
